Laboratory results taken from paper PMC12306165.

Amino acid sequences for entries named in this document (tags omitted). A change or cut given only in a name is not applied to a line headed by its entry.
UniProt C0H539: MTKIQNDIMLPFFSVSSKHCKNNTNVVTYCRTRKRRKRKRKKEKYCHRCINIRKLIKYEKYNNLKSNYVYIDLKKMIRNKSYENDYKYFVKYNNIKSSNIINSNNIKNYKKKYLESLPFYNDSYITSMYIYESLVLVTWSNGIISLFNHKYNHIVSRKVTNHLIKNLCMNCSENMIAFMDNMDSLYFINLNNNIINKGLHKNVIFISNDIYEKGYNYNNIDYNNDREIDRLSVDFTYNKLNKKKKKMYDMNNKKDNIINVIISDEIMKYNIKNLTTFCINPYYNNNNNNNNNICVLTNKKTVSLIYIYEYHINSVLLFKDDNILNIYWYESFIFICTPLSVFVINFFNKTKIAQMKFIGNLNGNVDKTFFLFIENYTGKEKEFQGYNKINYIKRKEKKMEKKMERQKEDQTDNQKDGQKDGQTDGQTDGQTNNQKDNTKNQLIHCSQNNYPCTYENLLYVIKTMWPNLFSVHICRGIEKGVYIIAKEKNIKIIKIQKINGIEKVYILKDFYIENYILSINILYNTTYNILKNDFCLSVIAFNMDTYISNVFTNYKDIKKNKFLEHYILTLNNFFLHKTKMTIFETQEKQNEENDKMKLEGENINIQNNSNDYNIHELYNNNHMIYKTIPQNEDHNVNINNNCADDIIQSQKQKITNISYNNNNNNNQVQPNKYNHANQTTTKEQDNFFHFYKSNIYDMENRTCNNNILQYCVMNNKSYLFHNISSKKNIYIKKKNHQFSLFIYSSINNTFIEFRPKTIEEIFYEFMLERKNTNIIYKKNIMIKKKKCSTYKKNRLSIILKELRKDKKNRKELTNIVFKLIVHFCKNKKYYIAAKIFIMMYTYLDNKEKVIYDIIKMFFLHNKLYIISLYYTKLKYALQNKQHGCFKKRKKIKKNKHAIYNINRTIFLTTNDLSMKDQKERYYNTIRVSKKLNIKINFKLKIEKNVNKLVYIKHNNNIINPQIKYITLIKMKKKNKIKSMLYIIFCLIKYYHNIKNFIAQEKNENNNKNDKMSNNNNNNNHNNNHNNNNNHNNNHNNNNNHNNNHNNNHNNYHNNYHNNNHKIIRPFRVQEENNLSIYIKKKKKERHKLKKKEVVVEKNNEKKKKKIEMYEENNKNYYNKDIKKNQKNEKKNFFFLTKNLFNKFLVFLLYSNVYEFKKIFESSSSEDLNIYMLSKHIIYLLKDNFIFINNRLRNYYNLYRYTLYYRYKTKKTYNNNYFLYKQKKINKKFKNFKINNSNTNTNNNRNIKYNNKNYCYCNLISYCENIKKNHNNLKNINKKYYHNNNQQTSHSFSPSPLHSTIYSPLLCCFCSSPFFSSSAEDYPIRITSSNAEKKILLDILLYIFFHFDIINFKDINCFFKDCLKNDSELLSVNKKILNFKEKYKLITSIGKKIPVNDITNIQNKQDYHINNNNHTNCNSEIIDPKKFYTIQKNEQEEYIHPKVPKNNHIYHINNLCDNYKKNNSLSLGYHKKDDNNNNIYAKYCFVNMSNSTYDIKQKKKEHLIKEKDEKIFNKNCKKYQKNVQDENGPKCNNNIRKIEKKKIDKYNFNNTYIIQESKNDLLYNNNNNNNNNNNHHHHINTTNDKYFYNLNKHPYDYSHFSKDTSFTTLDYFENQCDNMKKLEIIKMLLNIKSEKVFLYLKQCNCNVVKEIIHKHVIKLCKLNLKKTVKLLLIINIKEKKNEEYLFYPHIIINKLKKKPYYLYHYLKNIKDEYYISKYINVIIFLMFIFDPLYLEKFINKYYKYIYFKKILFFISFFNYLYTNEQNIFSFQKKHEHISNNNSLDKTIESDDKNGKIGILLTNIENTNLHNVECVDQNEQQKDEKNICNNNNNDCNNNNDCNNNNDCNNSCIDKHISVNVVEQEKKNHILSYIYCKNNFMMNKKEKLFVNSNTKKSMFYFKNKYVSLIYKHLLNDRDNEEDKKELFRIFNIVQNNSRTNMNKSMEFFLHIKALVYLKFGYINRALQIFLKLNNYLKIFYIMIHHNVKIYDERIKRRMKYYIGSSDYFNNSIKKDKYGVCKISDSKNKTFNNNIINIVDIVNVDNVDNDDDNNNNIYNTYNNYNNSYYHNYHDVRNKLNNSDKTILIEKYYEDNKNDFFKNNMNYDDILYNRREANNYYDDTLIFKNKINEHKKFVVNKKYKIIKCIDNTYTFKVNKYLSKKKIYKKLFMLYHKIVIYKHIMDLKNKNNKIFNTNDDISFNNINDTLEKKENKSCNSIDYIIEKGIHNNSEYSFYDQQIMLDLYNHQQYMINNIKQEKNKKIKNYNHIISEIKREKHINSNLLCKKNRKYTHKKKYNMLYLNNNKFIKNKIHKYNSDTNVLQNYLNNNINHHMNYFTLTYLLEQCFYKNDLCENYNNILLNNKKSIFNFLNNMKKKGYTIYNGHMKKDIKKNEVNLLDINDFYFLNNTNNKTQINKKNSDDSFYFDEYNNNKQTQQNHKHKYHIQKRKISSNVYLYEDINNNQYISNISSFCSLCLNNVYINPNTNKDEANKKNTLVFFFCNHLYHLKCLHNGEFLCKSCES
UniProt C6KT38: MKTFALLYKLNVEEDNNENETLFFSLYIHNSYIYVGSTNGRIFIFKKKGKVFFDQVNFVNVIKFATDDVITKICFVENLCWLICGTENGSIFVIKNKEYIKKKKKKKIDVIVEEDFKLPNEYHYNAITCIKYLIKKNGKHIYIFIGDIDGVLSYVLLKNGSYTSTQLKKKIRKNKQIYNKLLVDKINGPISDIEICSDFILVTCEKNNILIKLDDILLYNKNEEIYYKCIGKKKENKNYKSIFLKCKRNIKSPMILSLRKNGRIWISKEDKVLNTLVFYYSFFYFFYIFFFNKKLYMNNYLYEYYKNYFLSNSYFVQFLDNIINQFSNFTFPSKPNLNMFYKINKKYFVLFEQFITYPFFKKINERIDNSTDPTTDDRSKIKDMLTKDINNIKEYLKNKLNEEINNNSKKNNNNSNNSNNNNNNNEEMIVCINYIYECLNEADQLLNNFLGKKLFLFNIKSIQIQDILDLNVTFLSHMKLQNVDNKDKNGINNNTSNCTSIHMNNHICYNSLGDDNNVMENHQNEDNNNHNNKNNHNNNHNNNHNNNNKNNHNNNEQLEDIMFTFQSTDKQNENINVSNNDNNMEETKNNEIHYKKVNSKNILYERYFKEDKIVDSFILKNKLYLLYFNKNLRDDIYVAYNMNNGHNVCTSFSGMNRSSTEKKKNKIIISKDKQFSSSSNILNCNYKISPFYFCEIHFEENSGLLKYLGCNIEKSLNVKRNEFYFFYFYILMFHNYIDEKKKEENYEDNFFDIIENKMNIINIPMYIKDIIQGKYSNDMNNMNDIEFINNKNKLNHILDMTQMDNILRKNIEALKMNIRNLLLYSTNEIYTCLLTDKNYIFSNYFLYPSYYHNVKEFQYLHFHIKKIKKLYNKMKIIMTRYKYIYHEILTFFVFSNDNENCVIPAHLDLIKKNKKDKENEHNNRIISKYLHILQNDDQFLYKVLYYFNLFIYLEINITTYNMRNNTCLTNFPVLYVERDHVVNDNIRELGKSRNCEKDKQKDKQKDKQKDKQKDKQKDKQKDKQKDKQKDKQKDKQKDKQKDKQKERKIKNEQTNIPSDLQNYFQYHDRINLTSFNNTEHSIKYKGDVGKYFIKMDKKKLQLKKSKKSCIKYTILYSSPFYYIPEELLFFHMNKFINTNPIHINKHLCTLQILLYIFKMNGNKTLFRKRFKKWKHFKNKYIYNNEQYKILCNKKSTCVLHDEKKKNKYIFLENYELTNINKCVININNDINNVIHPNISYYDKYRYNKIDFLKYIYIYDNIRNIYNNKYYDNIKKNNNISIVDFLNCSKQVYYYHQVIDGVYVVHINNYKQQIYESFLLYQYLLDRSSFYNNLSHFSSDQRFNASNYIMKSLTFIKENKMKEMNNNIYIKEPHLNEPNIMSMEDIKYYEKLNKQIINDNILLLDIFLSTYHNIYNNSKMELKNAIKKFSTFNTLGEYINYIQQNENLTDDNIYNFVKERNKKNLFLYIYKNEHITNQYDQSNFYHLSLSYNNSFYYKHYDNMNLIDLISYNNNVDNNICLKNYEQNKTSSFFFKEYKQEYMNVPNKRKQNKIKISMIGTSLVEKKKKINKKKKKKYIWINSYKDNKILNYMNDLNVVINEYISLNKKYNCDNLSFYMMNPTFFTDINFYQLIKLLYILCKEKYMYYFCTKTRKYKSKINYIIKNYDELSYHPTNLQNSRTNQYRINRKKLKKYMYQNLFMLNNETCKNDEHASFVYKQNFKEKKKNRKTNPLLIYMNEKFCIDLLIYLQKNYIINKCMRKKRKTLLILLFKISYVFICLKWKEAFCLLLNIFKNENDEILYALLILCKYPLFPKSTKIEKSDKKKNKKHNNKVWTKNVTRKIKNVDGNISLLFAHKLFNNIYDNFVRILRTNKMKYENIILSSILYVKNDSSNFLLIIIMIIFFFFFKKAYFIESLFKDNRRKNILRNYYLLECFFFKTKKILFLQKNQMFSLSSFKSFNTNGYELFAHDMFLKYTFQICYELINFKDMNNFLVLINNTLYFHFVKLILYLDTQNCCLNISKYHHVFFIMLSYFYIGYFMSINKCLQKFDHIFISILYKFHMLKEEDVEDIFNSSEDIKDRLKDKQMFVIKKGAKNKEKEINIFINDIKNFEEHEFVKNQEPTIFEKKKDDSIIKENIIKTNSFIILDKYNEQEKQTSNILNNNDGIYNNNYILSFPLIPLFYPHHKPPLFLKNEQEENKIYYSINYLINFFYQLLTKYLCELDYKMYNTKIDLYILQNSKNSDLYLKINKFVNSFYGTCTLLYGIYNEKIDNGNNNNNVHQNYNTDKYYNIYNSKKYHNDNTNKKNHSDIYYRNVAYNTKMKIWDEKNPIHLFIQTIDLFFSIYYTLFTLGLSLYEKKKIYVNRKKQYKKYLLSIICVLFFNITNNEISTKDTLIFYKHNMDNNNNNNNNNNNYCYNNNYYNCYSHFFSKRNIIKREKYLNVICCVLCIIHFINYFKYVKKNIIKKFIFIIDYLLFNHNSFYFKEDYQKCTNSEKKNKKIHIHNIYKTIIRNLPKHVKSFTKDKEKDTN
UniProt Q8ILL4: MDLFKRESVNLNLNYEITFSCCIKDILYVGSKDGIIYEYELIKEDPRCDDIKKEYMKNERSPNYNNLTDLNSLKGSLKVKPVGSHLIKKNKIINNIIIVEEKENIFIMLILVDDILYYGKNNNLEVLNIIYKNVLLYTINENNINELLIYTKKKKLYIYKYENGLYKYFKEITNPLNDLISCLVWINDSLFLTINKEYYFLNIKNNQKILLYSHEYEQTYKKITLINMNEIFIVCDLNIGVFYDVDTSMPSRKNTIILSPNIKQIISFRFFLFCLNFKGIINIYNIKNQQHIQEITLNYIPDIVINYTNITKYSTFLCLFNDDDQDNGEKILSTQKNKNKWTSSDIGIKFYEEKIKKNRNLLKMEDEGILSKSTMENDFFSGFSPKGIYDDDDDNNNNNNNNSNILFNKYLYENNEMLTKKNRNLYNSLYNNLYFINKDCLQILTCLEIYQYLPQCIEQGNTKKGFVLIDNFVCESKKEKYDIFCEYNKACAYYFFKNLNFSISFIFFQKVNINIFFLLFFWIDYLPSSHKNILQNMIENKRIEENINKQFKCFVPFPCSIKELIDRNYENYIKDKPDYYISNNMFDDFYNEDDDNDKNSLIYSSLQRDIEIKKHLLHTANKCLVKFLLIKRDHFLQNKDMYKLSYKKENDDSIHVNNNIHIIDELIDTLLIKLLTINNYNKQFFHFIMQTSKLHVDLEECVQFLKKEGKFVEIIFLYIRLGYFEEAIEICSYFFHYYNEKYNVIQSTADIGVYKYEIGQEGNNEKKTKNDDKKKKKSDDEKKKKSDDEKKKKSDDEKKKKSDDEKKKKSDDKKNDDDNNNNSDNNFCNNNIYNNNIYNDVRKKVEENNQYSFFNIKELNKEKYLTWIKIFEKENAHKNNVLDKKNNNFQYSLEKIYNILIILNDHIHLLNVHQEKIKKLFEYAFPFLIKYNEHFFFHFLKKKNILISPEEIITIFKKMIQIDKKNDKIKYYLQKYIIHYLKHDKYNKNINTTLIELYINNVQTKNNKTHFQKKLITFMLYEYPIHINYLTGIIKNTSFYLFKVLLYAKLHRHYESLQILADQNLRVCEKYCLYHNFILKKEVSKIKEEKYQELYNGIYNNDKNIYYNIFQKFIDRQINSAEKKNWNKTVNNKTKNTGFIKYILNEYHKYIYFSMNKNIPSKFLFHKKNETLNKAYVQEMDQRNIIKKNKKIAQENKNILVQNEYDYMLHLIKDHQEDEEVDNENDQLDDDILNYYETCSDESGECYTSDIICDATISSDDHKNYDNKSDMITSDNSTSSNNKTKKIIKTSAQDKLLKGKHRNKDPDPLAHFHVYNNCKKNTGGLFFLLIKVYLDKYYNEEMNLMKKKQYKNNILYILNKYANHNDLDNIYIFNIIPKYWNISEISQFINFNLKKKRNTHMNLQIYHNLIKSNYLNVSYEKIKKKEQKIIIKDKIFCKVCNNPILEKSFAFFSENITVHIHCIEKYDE

These substances were tested against PfVps16-2xFKBP-GFP (P. falciparum (endogenous locus in NF54 parasites)) (UniProt Q8I524) (assay: affinity purification with mass spectrometry; anti-GFP mAb-agarose beads on the soluble fraction (1% T-Net) of schizont extracts of the PfVps16-2xFKBP-GFP line, 4°C, washed two times in PBS; untagged NF54 as negative control; two biological replicates, hits enriched at least twofold in both).

binding, binds:
conserved Plasmodium protein (PF3D7_0916400) (from UniProt C0H539 1-2519), PfVps11 (from UniProt Q8I480), WD-repeat containing transmembrane protein (PF3D7_0619800) (from UniProt C6KT38 1-2530), PfVps3 (from UniProt Q8ILL4)

Results are given in words; binding and its absence hold for the method and conditions named. In cells and extracts the contact can be indirect. These calls come from enrichment with a bait or labelling near it, and not all partners need be listed.
